Results taken from PubChem BioAssay AID330 (DTP/NCI, 2004).
The list does not hold the whole screen: it gathers tests that were run many times, whatever their T/C, doses with no T/C, and many T/C values between a quarter and a half above the control. Other doses and runs of a compound stand elsewhere. T/C: endpoint of the treated group in % of that of the vehicle group. Some doses have a count of surviving animals in place of a T/C: the source holds a T/C of zero for them, seemingly a mark for toxic or unscored doses. Some doses without a T/C left all or most animals alive at the check, yet need not have been tolerated: the source hardly ever lists a survival T/C far under the control, and the zero likely stands for such cases as well. Survivors were counted at the toxicity check, usually on the fifth day, unless a day is given; later deaths do not show. Schedule codes are those of the source, taken here to give the interval after Q, in days (D) or hours (H), and the number of doses after X. Some entries hold several experiments; the values are given in rising order. Where survival is the endpoint, this PubChem deposit counts one and a half times the control or more as active, and values a quarter to a half above the control carry no call in these data; other NCI protocols may use other cut-offs. Some T/C values carry the count of animals alive at the toxicity check (mostly the fifth day); without a count, all were alive then.

Test system: P388 leukemia ip, CD2F1 mice, survival T/C
Test: NCI In Vivo Anticancer Drug Screen. Data for tumor model P388 Leukemia (intraperitoneal) in CD2F1 (CDF1) mice
Settings: T/C endpoint: median survival time, higher T/C = longer survival
[1] = dose: 50.0 mg/kg/injection, schedule: Q01DX009 (ip), vehicle: Klucel (hydroxypropylcellulose) (HPC)
[2] = dose: 200.0 mg/kg/injection, schedule: Q01DX009 (ip), vehicle: saline with Tween-80
[3] = dose: 3.12 mg/kg/injection, schedule: Q01DX005 (ip), vehicle: Klucel (hydroxypropylcellulose) (HPC)
[4] = dose: 12.5 mg/kg/injection, schedule: Q01DX005 (ip), vehicle: Klucel (hydroxypropylcellulose) (HPC)
[5] = dose: 50.0 mg/kg/injection, schedule: Q01DX005 (ip), vehicle: Klucel (hydroxypropylcellulose) (HPC)
[6] = dose: 100.0 mg/kg/injection, schedule: Q01DX005 (ip), vehicle: Klucel (hydroxypropylcellulose) (HPC)
[7] = dose: 200.0 mg/kg/injection, schedule: Q01DX005 (ip), vehicle: Klucel (hydroxypropylcellulose) (HPC)
[8] = dose: 50.0 mg/kg/injection, schedule: Q01DX005 (ip), vehicle: saline with Tween-80
[9] = dose: 50.0 mg/kg/injection, schedule: Q01DX009 (ip), vehicle: saline with Tween-80
[10] = dose: 100.0 mg/kg/injection, schedule: Q01DX009 (ip), vehicle: saline with Tween-80

With `O=C(CCCSCCCl)Nc1c([N+](=O)[O-])cc([N+](=O)[O-])cc1S(=O)(=O)O` the T/C (dose: 6.25 mg/kg/injection, schedule: Q04DX003 (ip), vehicle: olive oil, sesame oil, peanut oil) was 127 % of control, the T/C (dose: 12.5 mg/kg/injection, schedule: Q04DX003 (ip), vehicle: DMSO) was 132 % of control and the T/C (dose: 12.5 mg/kg/injection, schedule: Q04DX003 (ip), vehicle: olive oil, sesame oil, peanut oil) was 141 % of control. For the same molecule, the T/C (dose: 25.0 mg/kg/injection, schedule: Q04DX003 (ip), vehicle: DMSO) was 136 % of control, the T/C (dose: 25.0 mg/kg/injection, schedule: Q04DX003 (ip), vehicle: olive oil, sesame oil, peanut oil) was 126 % of control and the T/C (dose: 50.0 mg/kg/injection, schedule: Q04DX003 (ip), vehicle: DMSO) was 142 % of control. For the same molecule, the T/C (dose: 50.0 mg/kg/injection, schedule: Q04DX003 (ip), vehicle: olive oil, sesame oil, peanut oil) was 138 % of control, the T/C (dose: 75.0 mg/kg/injection, schedule: Q04DX003 (ip), vehicle: DMSO) was 131 % of control and the survivor count (dose: 200.0 mg/kg/injection, schedule: Q04DX003 (ip), vehicle: olive oil, sesame oil, peanut oil) was 0 of 6.
For `O=C(O)c1ccc(-c2nn[nH]n2)cc1`, the survivor count [1] was 6 of 6.
In the case of `CC1(C)CC(C)(OC(=O)c2ccccc2Cl)N=N1` (configuration not stated), the T/C (dose: 25.0 mg/kg/injection, schedule: Q01DX009 (ip), vehicle: other) was 128 % of control.
In the case of `CC(C)(C)SC(=O)C1CCCCC1`, the survivor count [2] was 4 of 6.
`COC(=O)[CH2][Sn]([CH2]C(=O)OC)([c]1ccccc1)[c]1ccccc1` was tested, and the survivor count (dose: 1.56 mg/kg/injection, schedule: Q01DX005 (ip), vehicle: Klucel (hydroxypropylcellulose) (HPC)) was 1 of 6, the T/C [3] was 131 % of control [5 of 6 alive] and the survivor count [3] was 0 of 6. For the same molecule, the survivor count (dose: 6.25 mg/kg/injection, schedule: Q01DX005 (ip), vehicle: Klucel (hydroxypropylcellulose) (HPC)) was 0 of 6, the survivor count [4] was 0 of 6 and the survivor count [5] was 0 of 6. For the same molecule, the survivor count [6] was 0 of 6 and the survivor count [7] was 0 of 6.
For `Cc1cc2nc3c(C4OCC(O)C4O)nn(-c4ccc(F)cc4)c3nc2cc1C` (configuration not stated), the survivor count [5] was 4 of 4, the survivor count [6] was 6 of 6 and the survivor count [7] was 6 of 6.
For `Cc1ccc(C=C(C#N)C#N)o1`, the survivor count (dose: 240.0 mg/kg/injection, schedule: Q01DX005 (ip), vehicle: saline with Tween-80) was 0 of 6.
`CC(=O)OC1C(C)OC(OC(=O)C2CCC3C(C2)OC2(CC(OC(=O)/C=C/c4ccccc4)C(C)CO2)C32CO2)C(OC2OC(C)C(O)C(OC(C)=O)C2O)C1O` (configuration not stated) was tested, and the T/C (dose: 3.34 mg/kg/injection, schedule: Q01DX009 (ip), vehicle: saline + alcohol) was 130 % of control, the T/C (dose: 12.5 mg/kg/injection, schedule: Q01DX005 (ip), vehicle: saline with Tween-80) was 138 % of control and the T/C (dose: 25.0 mg/kg/injection, schedule: Q01DX005 (ip), vehicle: saline with Tween-80) was 140 % of control. The T/C [8] was 148 % of control.
`O=c1cc[nH]c(=S)[nH]1.[Cu+2]` was tested, and the survivor count (dose: 6.25 mg/kg/injection, schedule: Q01DX009 (ip), vehicle: DMSO) was 6 of 6, the survivor count (dose: 25.0 mg/kg/injection, schedule: Q01DX009 (ip), vehicle: DMSO) was 0 of 6 and the survivor count (dose: 50.0 mg/kg/injection, schedule: Q01DX009 (ip), vehicle: DMSO) was 0 of 6. For the same molecule, the survivor count (dose: 100.0 mg/kg/injection, schedule: Q01DX009 (ip), vehicle: DMSO) was 0 of 6 and the survivor count (dose: 200.0 mg/kg/injection, schedule: Q01DX009 (ip), vehicle: DMSO) was 0 of 6.
In the case of `CN(C(=[Se])[Se]C(=[Se])N(C)C1CCCCC1)C1CCCCC1`, the survivor count (dose: 240.0 mg/kg/injection, schedule: Q01DX005 (ip), vehicle: Klucel (hydroxypropylcellulose) (HPC)) was 0 of 6.
In the case of `COC(=O)C1c2ccccc2CC(=O)N1NC(=O)c1ccccc1` (configuration not stated), the survivor count (dose: 200.0 mg/kg/injection, schedule: Q01DX009 (ip), vehicle: Klucel (hydroxypropylcellulose) (HPC)) was 0 of 6.
With `C(C#CCN1CCOCC1)#CCN1CCOCC1` the T/C (dose: 400.0 mg/kg/injection, schedule: Q01DX009 (ip), vehicle: Klucel (hydroxypropylcellulose) (HPC)) was 125 % of control.
With `CCN(CC)C(=O)S(=O)(=O)c1ccccc1` the survivor count [1] was 0 of 6 and 2 of 4 and the survivor count (dose: 100.0 mg/kg/injection, schedule: Q01DX009 (ip), vehicle: Klucel (hydroxypropylcellulose) (HPC)) was 0 of 6.
For `C=CCNC(=S)N/N=C/c1nccc(-c2ccccc2)c1C`, the survivor count (dose: 6.25 mg/kg/injection, schedule: Q01DX009 (ip), vehicle: saline with Tween-80) was 6 of 6, the T/C (dose: 12.5 mg/kg/injection, schedule: Q01DX009 (ip), vehicle: saline with Tween-80) was 126 and 130 % of control and the T/C (dose: 25.0 mg/kg/injection, schedule: Q01DX009 (ip), vehicle: saline with Tween-80) was 132 % of control. The survivor count [9] was 6 of 6, the survivor count [10] was 1 of 6 and the survivor count [2] was 0 of 6.
For `COP(=O)(OC)C(O)C1CCCCC1` (configuration not stated), the survivor count (dose: 100.0 mg/kg/injection, schedule: Q01DX009 (ip), vehicle: saline) was 5 of 6.
`Cc1cc(O)c2c(c1)C(=O)C13C(=C2O)C(=O)C2C(O)C1C1C(O)C3C(=O)C3=C(O)c4c(O)cc(C)cc4C(=O)C321` (configuration not stated) was tested, and the survivor count [4] was 6 of 6, the survivor count (dose: 25.0 mg/kg/injection, schedule: Q01DX005 (ip), vehicle: Klucel (hydroxypropylcellulose) (HPC)) was 2 of 6 and the survivor count [5] was 1 of 6 and 5 of 6. For the same molecule, the survivor count [6] was 0 of 6 and the survivor count [7] was 0 of 6.
With `O=S(=O)(O)Sc1ncnc2nc[nH]c12` the survivor count (dose: 25.0 mg/kg/injection, schedule: Q01DX009 (ip), vehicle: saline) was 2 of 6, the survivor count (dose: 37.5 mg/kg/injection, schedule: Q04DX003 (ip), vehicle: saline) was 1 of 6 and the survivor count (dose: 400.0 mg/kg/injection, schedule: Q01DX009 (ip), vehicle: saline) was 1 of 6. For the same molecule, the survivor count (dose: 600.0 mg/kg/injection, schedule: Q04DX003 (ip), vehicle: saline) was 0 of 6.
With `O=C1NC(=O)C2(CCCC2=Nc2ccc(Br)cc2)C2C=CN(Cc3ccccc3)C=C12` (configuration not stated) the survivor count (dose: 400.0 mg/kg/injection, schedule: Q04DX003 (ip), vehicle: saline) was 3 of 6.
In the case of `ClC(Cl)(Cl)c1nc2nccnc2[nH]1`, the survivor count [9] was 5 of 6 and the survivor count [10] was 5 of 6.
For `COC(=O)C1=CC(=O)N2C(=Nc3cccc4cccc2c34)S1`, the survivor count [8] was 5 of 5.
For `[B-][N+](C)(C)C`, the survivor count (dose: 200.0 mg/kg/injection, schedule: Q01DX005 (ip), vehicle: saline with Tween-80) was 0 of 5.
With `CCN(CC)CCOc1ccc(C2=C(c3ccccc3)CCc3cc(OC)ccc32)cc1` the survivor count (dose: 400.0 mg/kg/injection, schedule: Q04DX003 (ip), vehicle: saline with Tween-80) was 0 of 6.
In the case of `COc1ccc([I+]c2ccccc2)cc1`, the survivor count (dose: 5.0 mg/kg/injection, schedule: Q01DX009 (ip), vehicle: saline sonified) was 6 of 6 and the survivor count (dose: 10.0 mg/kg/injection, schedule: Q01DX009 (ip), vehicle: saline sonified) was 5 of 6.
With `O=[N+]([O-])c1ccc2c(NCCCCCCNc3c4ccccc4nc4cc([N+](=O)[O-])ccc34)c3ccccc3nc2c1` the T/C (dose: 1.25 mg/kg/injection, schedule: Q01DX009 (ip), vehicle: other) was 137 % of control, the T/C (dose: 2.5 mg/kg/injection, schedule: Q01DX009 (ip), vehicle: other) was 127 % of control and the T/C (dose: 5.0 mg/kg/injection, schedule: Q01DX009 (ip), vehicle: other) was 138 % of control. The T/C (dose: 10.0 mg/kg/injection, schedule: Q01DX009 (ip), vehicle: other) was 129 % of control and the T/C (dose: 20.0 mg/kg/injection, schedule: Q01DX009 (ip), vehicle: other) was 138 % of control.
